Three substances from article PMC11628624 can be followed below.

Protein sequences, listed by entry. Tags and fused reporters are not part of them.
UniProt P48431: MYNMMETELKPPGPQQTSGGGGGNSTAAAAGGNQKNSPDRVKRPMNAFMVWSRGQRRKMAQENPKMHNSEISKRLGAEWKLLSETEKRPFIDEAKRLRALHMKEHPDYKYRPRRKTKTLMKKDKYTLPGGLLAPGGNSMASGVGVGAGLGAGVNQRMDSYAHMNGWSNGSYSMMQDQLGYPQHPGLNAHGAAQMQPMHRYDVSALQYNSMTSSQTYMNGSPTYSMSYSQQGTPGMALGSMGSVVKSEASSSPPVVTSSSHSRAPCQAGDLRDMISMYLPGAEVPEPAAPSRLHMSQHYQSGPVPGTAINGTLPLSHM
UniProt Q06330: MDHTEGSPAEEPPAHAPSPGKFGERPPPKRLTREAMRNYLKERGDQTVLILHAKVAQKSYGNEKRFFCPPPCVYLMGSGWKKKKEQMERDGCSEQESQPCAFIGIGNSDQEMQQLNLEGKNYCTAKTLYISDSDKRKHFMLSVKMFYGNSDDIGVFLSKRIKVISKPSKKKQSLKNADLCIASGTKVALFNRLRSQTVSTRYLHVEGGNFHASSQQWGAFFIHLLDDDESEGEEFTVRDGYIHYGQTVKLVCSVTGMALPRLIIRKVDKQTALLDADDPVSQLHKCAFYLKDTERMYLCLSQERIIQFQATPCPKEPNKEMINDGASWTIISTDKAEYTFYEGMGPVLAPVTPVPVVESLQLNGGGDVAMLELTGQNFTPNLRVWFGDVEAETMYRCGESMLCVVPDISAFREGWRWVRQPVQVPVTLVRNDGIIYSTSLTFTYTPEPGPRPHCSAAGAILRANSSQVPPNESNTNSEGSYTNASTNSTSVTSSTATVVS

No constants are given. Whether binding was seen depends on the method and setting. Binding seen in cells or lysates may run through a third protein. Some results given as binding are weak or reduced against the parent protein; the word gives no strength.

The target in test [1] is SOX2 (endogenous, MB157R cells) (human (endogenous in MB157R)) (UniProt P48431). As to the kind of experiment: co-IP; MB157R cells, endogenous proteins; lysis buffer 20 mM Tris pH 8.0, 150 mM NaCl, 1% NP-40, 10% glycerol; 2 mg protein, overnight at 4 °C with anti-SOX2 or anti-RBPJ antibody and Protein A Sepharose; 5 washes; immunoblot. (In general: In western blotting, separated proteins are transferred to a membrane and probed.)

For test [2], the target named is HA-tagged SOX2 (DOX-inducible, iSOX2) (UniProt P48431). As to the kind of experiment: co-IP; iSOX2 MB157 cells (DOX-induced HA-tagged SOX2); lysis buffer 20 mM Tris pH 8.0, 150 mM NaCl, 1% NP-40, 10% glycerol; 2 mg protein, overnight at 4 °C with anti-HA or anti-RBPJ antibody and Protein A Sepharose; 5 washes; immunoblot.
The target in test [3] is RBPJ (endogenous) (human (endogenous in MB157 and MB157R)) (UniProt Q06330). Description: co-IP; MB157R cells, endogenous proteins; lysis buffer 20 mM Tris pH 8.0, 150 mM NaCl, 1% NP-40, 10% glycerol; 2 mg protein, overnight at 4 °C with anti-SOX2 or anti-RBPJ antibody and Protein A Sepharose; 5 washes; immunoblot.
The target is the same in test [4]. As to the kind of experiment: co-IP; iSOX2 MB157 cells (DOX-induced HA-tagged SOX2); lysis buffer 20 mM Tris pH 8.0, 150 mM NaCl, 1% NP-40, 10% glycerol; 2 mg protein, overnight at 4 °C with anti-HA or anti-RBPJ antibody and Protein A Sepharose; 5 washes; immunoblot.

With “RBPJ (endogenous) (from UniProt Q06330 1-500)”, the binding entry in test [1] and in test [2] was “binds” in each case.

On to “SOX2 (endogenous, MB157R cells) (from UniProt P48431 1-317)”, for which the binding entry in test [3] is on record as “binds”.

“HA-tagged SOX2 (DOX-inducible, iSOX2) (from UniProt P48431 1-317)”: the binding result in test [4] is reported as “binds”.
